Source: PubChem BioAssay AID208 (DTP/NCI, 2004)
The list is a part of this screen's results and no random one: its compounds were picked by chemical class. Other doses and runs of a compound may be missing. T/C gives the treated animals as a percentage of the vehicle group. Schedule codes are those of the source, taken here to give the interval after Q, in days (D) or hours (H), and the number of doses after X. Some T/C values are followed by the survivors on the day toxicity was checked; without a count or a note in brackets, all were alive then. Some doses have a count of surviving animals in place of a T/C: the source files T/C as zero there, which appears to mark a toxic dose or a test without result, not a measured value. Survivors were counted at the toxicity check; its day is shown where the source gives one, and later deaths do not show.

System: HT29 intrarenal xenograft, nude mice, tumor weight change
Assay: NCI In Vivo Anticancer Drug Screen. Data for tumor model HT29;CX-1 Human Adenocarcinoma (MER+) (intrarenal inoculation) in NU/NU BALB/C (nude) mice
Conditions: T/C endpoint: mean tumor weight change, schedule: Q04DX004 (sc), higher T/C = larger tumour; for T/C: evaluated on day 15
Procedure: The antitumor activity of compounds was measured in mice bearing transplantable tumors. Survival or tumor size were measured and the results are expressed as the measurement made in the treated group (T) divided by the measurement made in the vehicle treated control group (C). The tumor model used in this assay is HT29;CX-1 Human Adenocarcinoma (MER+) (intrarenal inoculation) in NU/NU BALB/C (nude) mice

| SMILES | T/C (dose: 75.0 mg/kg/injection, vehicle: Klucel (hydroxypropylcellulose) (HPC)) | T/C (dose: 150.0 mg/kg/injection, vehicle: Klucel (hydroxypropylcellulose) (HPC)) | survivor count (dose: 300.0 mg/kg/injection, vehicle: Klucel (hydroxypropylcellulose) (HPC)) | survivor count (dose: 600.0 mg/kg/injection, vehicle: Klucel (hydroxypropylcellulose) (HPC)) | T/C (dose: 100.0 mg/kg/injection, vehicle: saline) | T/C (dose: 200.0 mg/kg/injection, vehicle: saline) | T/C (dose: 400.0 mg/kg/injection, vehicle: saline) | T/C (dose: 800.0 mg/kg/injection, vehicle: saline) | survivor count (dose: 1200.0 mg/kg/injection, vehicle: saline) | survivor count (dose: 2400.0 mg/kg/injection, vehicle: saline) |
| --- | --- | --- | --- | --- | --- | --- | --- | --- | --- | --- |
| ICCN(CCI)c1cccc2ccccc12 | 128 % of control | 87 % of control [5 of 6 alive on day 15] | 3 of 6 on day 15 | 0 of 6 on day 15 | – | – | – | – | – | – |
| CC1(C)CN1P(=O)(Nc1ncccn1)N1CC1(C)C (stereo not given) | – | – | – | – | 60 % of control | 80 % of control | 56 % of control | 33 % of control | 0 of 6 on day 15 | 0 of 6 on day 15 |
